The record followed here is PubChem BioAssay AID248 (DTP/NCI, 2004).

The list is a part of this screen's results and no random one: it gathers some chemical classes. Not every dose and run of a compound is shown. T/C is the treated group as % of the vehicle group. Some doses have a count of surviving animals in place of a T/C: the source files T/C as zero there, which appears to mark a toxic dose or a test without result, not a measured value. Some survivor counts are full or nearly so, which does not show that the dose was tolerated: survival well below the control is almost never listed, so the zero probably covers shortened survival too. Counts of survivors are from the toxicity check (mostly the fifth day) where no day follows; animals may have died later. Schedules are NCI's codes, read here as Q, the interval in days (D) or hours (H), X, the number of doses. Some schedules carry Z or #; the key to these is not given. Some doses were run more than once; the values are given in rising order. Where survival is the endpoint, the PubChem record calls one and a half times the control and up active, and a quarter to a half above the control has no call in these data; cut-offs in other NCI protocols can differ. Some T/C values carry the count of animals alive at the toxicity check (mostly the fifth day); where neither a count nor a note follows, no animal had died by that day. Some metal complexes and salts are drawn in pieces, as in the source, so charges may not balance.

This assay has as its system L1210 leukemia ip in BDF1 mice, survival T/C. In words: NCI In Vivo Anticancer Drug Screen. Data for tumor model L1210 Leukemia (intraperitoneal) in B6D2F1 (BDF1) mice. The conditions noted are these: T/C endpoint: mean survival time, higher T/C = longer survival.
Setting [1] is: dose: 100.0 mg/kg/injection, schedule: Q01DX009 (ip), vehicle: other.
Where [2] appears, read: dose: 100.0 mg/kg/injection, schedule: Q04DX003 (ip), vehicle: Klucel (hydroxypropylcellulose) (HPC).
Where [3] appears, read: dose: 180.0 mg/kg/injection, schedule: Q01DX Z (ip), vehicle: methylcellulose (MC).
[4] abbreviates: dose: 200.0 mg/kg/injection, schedule: Q04DX003 (ip), vehicle: Klucel (hydroxypropylcellulose) (HPC).
Where [5] appears, read: dose: 200.0 mg/kg/injection, schedule: Q04DX003 (ip), vehicle: saline with Tween-80.
Setting [6] is: dose: 400.0 mg/kg/injection, schedule: Q04DX003 (ip), vehicle: Klucel (hydroxypropylcellulose) (HPC).
Where [7] appears, read: dose: 100.0 mg/kg/injection, schedule: Q01DX001 (ip), vehicle: saline.
Setting [8] is: dose: 200.0 mg/kg/injection, schedule: Q01DX001 (ip), vehicle: saline.
Setting [9] is: dose: 400.0 mg/kg/injection, schedule: Q01DX001 (ip), vehicle: saline.

`CCOC(=O)COc1cccc(N(CCCl)CCCl)c1`: the T/C runs as follows: (dose: 33.0 mg/kg/injection, schedule: Q01DX009 (ip), vehicle: other) 101 % of control [5 of 6 alive]; (dose: 50.0 mg/kg/injection, schedule: Q01DX001 (ip), vehicle: carboxymethylcellulose (CMC)) 113 % of control; (dose: 50.0 mg/kg/injection, schedule: Q01DX009 (ip), vehicle: other) 104 and 118 % of control; (dose: 53.0 mg/kg/injection, schedule: Q01DX Z (ip), vehicle: methylcellulose (MC)) 108 % of control; (dose: 66.0 mg/kg/injection, schedule: Q01DX009 (ip), vehicle: other) 119 % of control; (dose: 75.0 mg/kg/injection, schedule: Q01DX009 (ip), vehicle: other) 104 % of control. Further, the T/C is 94 and 102 % of control (dose: 80.0 mg/kg/injection, schedule: Q01DX Z (ip), vehicle: methylcellulose (MC)); 102 % of control (dose: 88.0 mg/kg/injection, schedule: Q04DX003 (ip), vehicle: saline with Tween-80); 104 % of control (dose: 100.0 mg/kg/injection, schedule: Q01DX001 (ip), vehicle: carboxymethylcellulose (CMC)); 127 % of control under setting [1]; 100 % of control under setting [2]; 93 and 108 % of control [5 of 6 alive] (dose: 120.0 mg/kg/injection, schedule: Q01DX Z (ip), vehicle: methylcellulose (MC)). For the same compound, the T/C is 105 % of control (dose: 132.0 mg/kg/injection, schedule: Q04DX003 (ip), vehicle: saline with Tween-80); 136 % of control [5 of 6 alive] (dose: 150.0 mg/kg/injection, schedule: Q01DX009 (ip), vehicle: other); 117 % of control under setting [3]; 109 % of control (dose: 200.0 mg/kg/injection, schedule: Q01DX001 (ip), vehicle: carboxymethylcellulose (CMC)); 93 % of control (dose: 200.0 mg/kg/injection, schedule: Q01DX009 (ip), vehicle: other); 125 % of control under setting [4]. The T/C was 105 % of control under setting [5]; 117 % of control (dose: 300.0 mg/kg/injection, schedule: Q04DX003 (ip), vehicle: saline with Tween-80); 107 % of control (dose: 400.0 mg/kg/injection, schedule: Q01DX001 (ip), vehicle: carboxymethylcellulose (CMC)). In addition, the survivor count under setting [1] is reported as 3 of 6; the survivor count under setting [3] is reported as 6 of 7; the survivor count (dose: 270.0 mg/kg/injection, schedule: Q01DX Z (ip), vehicle: methylcellulose (MC)) was 0 of 7; the survivor count under setting [6] is given as 5 of 6.
For the compound `C=CCC[P+](C)(c1ccccc1)c1ccccc1.F[P-](F)(F)(F)(F)F`, the T/C was 91 % of control (dose: 0.78 mg/kg/injection, schedule: Q04DX003 (ip), vehicle: Klucel (hydroxypropylcellulose) (HPC)); 107 % of control (dose: 1.56 mg/kg/injection, schedule: Q04DX003 (ip), vehicle: Klucel (hydroxypropylcellulose) (HPC)); 92 and 98 % of control (dose: 3.12 mg/kg/injection, schedule: Q04DX003 (ip), vehicle: Klucel (hydroxypropylcellulose) (HPC)). The survivor count reads like this: (dose: 6.25 mg/kg/injection, schedule: Q04DX003 (ip), vehicle: Klucel (hydroxypropylcellulose) (HPC)) 4 of 6; (dose: 12.5 mg/kg/injection, schedule: Q04DX003 (ip), vehicle: Klucel (hydroxypropylcellulose) (HPC)) 0 of 6; (dose: 25.0 mg/kg/injection, schedule: Q04DX003 (ip), vehicle: Klucel (hydroxypropylcellulose) (HPC)) 0 of 6; (dose: 50.0 mg/kg/injection, schedule: Q04DX003 (ip), vehicle: Klucel (hydroxypropylcellulose) (HPC)) 0 of 6 and 1 of 6; under setting [2], 6 of 6; under setting [4], 6 of 6. Besides, the survivor count under setting [6] was 0 of 6.
`CCOP(=O)(Nc1nc2ccccc2[nH]1)OCC`: the T/C is 94 % of control (dose: 50.0 mg/kg/injection, schedule: Q01DX009 (ip), vehicle: saline); 105 % of control (dose: 100.0 mg/kg/injection, schedule: Q01DX009 (ip), vehicle: saline); 102 % of control (dose: 200.0 mg/kg/injection, schedule: Q01DX009 (ip), vehicle: saline).
For the compound `CP(N)(Cl)(c1ccccc1)c1ccccc1`, the T/C is 106 % of control (dose: 15.0 mg/kg/injection, schedule: Q01DX001 (ip), vehicle: saline) and 111 % of control (dose: 30.0 mg/kg/injection, schedule: Q01DX001 (ip), vehicle: saline). For the same compound, the survivor count was 0 of 6 (dose: 60.0 mg/kg/injection, schedule: Q01DX001 (ip), vehicle: saline); 1 of 6 under setting [7]; 0 of 6 under setting [8]; 1 of 6 under setting [9].
Turning to `CCOP(=O)(NC(=S)NC12CC3CC(CC(C3)C1)C2)OCC`, the T/C was 98 % of control (dose: 75.0 mg/kg/injection, schedule: Q01DX009 (ip), vehicle: Klucel (hydroxypropylcellulose) (HPC)) and 93 % of control (dose: 150.0 mg/kg/injection, schedule: Q01DX009 (ip), vehicle: Klucel (hydroxypropylcellulose) (HPC)). Besides, the survivor count (dose: 300.0 mg/kg/injection, schedule: Q01DX009 (ip), vehicle: Klucel (hydroxypropylcellulose) (HPC)) was 3 of 6.
For the compound `Cc1ccc(P(=O)(Cl)Cl)cc1`, the T/C by setting is: (dose: 25.0 mg/kg/injection, schedule: Q01DX009 (ip), vehicle: saline with Tween-80) 88 % of control; (dose: 50.0 mg/kg/injection, schedule: Q01DX009 (ip), vehicle: saline with Tween-80) 95 % of control; (dose: 100.0 mg/kg/injection, schedule: Q04DX003 (ip), vehicle: saline with Tween-80) 86 % of control [5 of 6 alive]. Besides, the survivor count by setting is: (dose: 100.0 mg/kg/injection, schedule: Q01DX009 (ip), vehicle: saline with Tween-80) 3 of 6; under setting [5], 4 of 6; (dose: 400.0 mg/kg/injection, schedule: Q04DX003 (ip), vehicle: saline with Tween-80) 0 of 6.
Take `CCCCO[PH+](OCCCC)OCCCC.CCCCO[PH+](OCCCC)OCCCC.[C-]#[O+].[C-]#[O+].[C-]#[O+].[C-]#[O+].[Cr]`: the T/C runs as follows: (dose: 50.0 mg/kg/injection, schedule: Q01DX009 (ip), vehicle: acetone) 95 % of control; (dose: 100.0 mg/kg/injection, schedule: Q01DX009 (ip), vehicle: acetone) 100 % of control; (dose: 100.0 mg/kg/injection, schedule: Q04DX003 (ip), vehicle: acetone) 101 % of control; (dose: 200.0 mg/kg/injection, schedule: Q01DX009 (ip), vehicle: acetone) 103 % of control; (dose: 200.0 mg/kg/injection, schedule: Q04DX003 (ip), vehicle: acetone) 98 % of control; (dose: 400.0 mg/kg/injection, schedule: Q04DX003 (ip), vehicle: acetone) 98 % of control.
`CCN(CC)CCOC(=O)C(O)(c1ccccc1)c1cccc(C)c1C` (stereo not drawn): the T/C is 94 % of control (dose: 9.38 mg/kg/injection, schedule: Q01DX001 (ip), vehicle: other); 100 % of control (dose: 18.75 mg/kg/injection, schedule: Q01DX001 (ip), vehicle: other); 104 % of control (dose: 37.5 mg/kg/injection, schedule: Q01DX001 (ip), vehicle: other).
Regarding `CCCCCCC(C)(C)COP1OCC(C)(C)CO1`, the T/C is, setting by setting: under setting [7], 86 % of control; (dose: 100.0 mg/kg/injection, schedule: Q04DX003 (ip), vehicle: saline) 99 % of control; under setting [8], 102 % of control; (dose: 200.0 mg/kg/injection, schedule: Q04DX003 (ip), vehicle: saline) 102 % of control; under setting [9], 90 % of control; (dose: 400.0 mg/kg/injection, schedule: Q04DX003 (ip), vehicle: saline) 99 % of control.
